Values from PubChem BioAssay AID743121 (NCATS, 2013).
Assay: 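Partners whose loss is lethal together with topoisomerase I blockade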 (primary screen). Cells: MDA-MB-231 cells, a human breast cancer line. Reagents: single siRNA against human genes, 20 nM siRNA (0.8 pmol per well). Duration: 120 h (drug added 48 h after transfection, read 72 h later). Challenge: camptothecin 20 nM (about EC30) for 72 h; vehicle 0.1% DMSO in parallel plates. Measured: 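CellTiter-Glo ATP signal, scaled to control siRNA as percent viability; sensitisation given as log2 of untreated divided by camptothecin-treated viability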. Reading the numbers: log2 vehicle/camptothecin viability: higher = stronger sensitisation to camptothecin; viability with camptothecin and viability without drug: higher = more viable cells. Call rule: 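Active genes have an RSA gene-level p-value below 0.001, computed from the ratios of their separate siRNAs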.
In all, the deposit lists about 26,000 reagents; below is a part drawn at random. In the full data, 167 (0.63%) were called active. 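Calls are per gene from RSA p-values that are not deposited; an individual active-marked siRNA can sensitise only weakly.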 Reagents against one gene are numbered here. No sequences are given here.

| Target gene | reagent no. | log2 vehicle/camptothecin viability | viability with camptothecin (% of control) | viability without drug (% of control) | Outcome |
| --- | --- | --- | --- | --- | --- |
| FECH (GeneID 2235) | 1 | -0.0833 | 97.1 | 91.7 | inactive |
| FECH (GeneID 2235) | 2 | -0.524 | 88.4 | 61.5 | inactive |
| FECH (GeneID 2235) | 3 | 0.0574 | 46.1 | 48 | inactive |
| FECH (GeneID 2235) | 4 | -0.513 | 73.2 | 51.3 | inactive |
| TNS3 (GeneID 64759) | 1 | -0.217 | 67.4 | 58 | inactive |
| TNS3 (GeneID 64759) | 2 | -0.133 | 108 | 98.7 | inactive |
| TNS3 (GeneID 64759) | 3 | -0.0263 | 17.1 | 16.8 | inactive |
| FOXO3 (GeneID 2309) | 1 | 0.0132 | 85.7 | 86.5 | inactive |
| FOXO3 (GeneID 2309) | 2 | -0.262 | 70.9 | 59.1 | inactive |
| FOXO3 (GeneID 2309) | 3 | 0.26 | 70.6 | 84.6 | inactive |
| FOXO3 (GeneID 2309) | 4 | 0.496 | 36.3 | 51.2 | inactive |
| TSPOAP1 (GeneID 9256) | 1 | -0.072 | 97.8 | 93 | inactive |
| TSPOAP1 (GeneID 9256) | 2 | -0.168 | 33.2 | 29.6 | inactive |
| TSPOAP1 (GeneID 9256) | 3 | -0.232 | 72.6 | 61.8 | inactive |
| PRKAB1 (GeneID 5564) | 1 | -0.156 | 108 | 97 | inactive |
| PRKAB1 (GeneID 5564) | 2 | 0.128 | 104 | 114 | inactive |
| PRKAB1 (GeneID 5564) | 3 | 0.115 | 71.3 | 77.2 | inactive |
| PRKAB1 (GeneID 5564) | 4 | -0.484 | 36.3 | 25.9 | inactive |

Next part; the last 6 above are carried over.
| Target gene | reagent no. | log2 vehicle/camptothecin viability | viability with camptothecin (% of control) | viability without drug (% of control) | Outcome |
| --- | --- | --- | --- | --- | --- |
| TSPOAP1 (GeneID 9256) | 2 | -0.168 | 33.2 | 29.6 | inactive |
| TSPOAP1 (GeneID 9256) | 3 | -0.232 | 72.6 | 61.8 | inactive |
| PRKAB1 (GeneID 5564) | 1 | -0.156 | 108 | 97 | inactive |
| PRKAB1 (GeneID 5564) | 2 | 0.128 | 104 | 114 | inactive |
| PRKAB1 (GeneID 5564) | 3 | 0.115 | 71.3 | 77.2 | inactive |
| PRKAB1 (GeneID 5564) | 4 | -0.484 | 36.3 | 25.9 | inactive |
| CNBP (GeneID 7555) | 1 | -0.522 | 58 | 40.4 | inactive |
| CNBP (GeneID 7555) | 2 | -0.362 | 83.2 | 64.7 | inactive |
| CNBP (GeneID 7555) | 3 | -0.0417 | 101 | 98 | inactive |
| NCKAP1 (GeneID 10787) | 1 | 0.0769 | 63.2 | 66.6 | inactive |
| NCKAP1 (GeneID 10787) | 2 | -0.366 | 81.6 | 63.3 | inactive |
| NCKAP1 (GeneID 10787) | 3 | 0.0683 | 95.7 | 100 | inactive |
| NCKAP1 (GeneID 10787) | 4 | -0.251 | 87.4 | 73.4 | inactive |
| GYPC (GeneID 2995) | 1 | -0.316 | 90.2 | 72.4 | inactive |
| GYPC (GeneID 2995) | 2 | -0.253 | 54.6 | 45.8 | inactive |
| GYPC (GeneID 2995) | 3 | -0.0839 | 121 | 115 | inactive |
| RBM5 (GeneID 10181) | 1 | -0.308 | 77.1 | 62.3 | inactive |
| RBM5 (GeneID 10181) | 2 | -0.364 | 95.4 | 74.1 | inactive |
| RBM5 (GeneID 10181) | 3 | -0.288 | 53 | 43.4 | inactive |
| RBM5 (GeneID 10181) | 4 | 0.088 | 50 | 53.1 | inactive |
| SLC10A3 (GeneID 8273) | 1 | -0.37 | 88.5 | 68.5 | inactive |
| SLC10A3 (GeneID 8273) | 2 | -0.531 | 52.8 | 36.6 | inactive |
| SLC10A3 (GeneID 8273) | 3 | 0.0276 | 58.8 | 59.9 | inactive |
| IFNL2 (GeneID 282616) | 1 | -0.0832 | 46.4 | 43.8 | inactive |
| IFNL2 (GeneID 282616) | 2 | -0.304 | 66.1 | 53.6 | inactive |
| IFNL2 (GeneID 282616) | 3 | 0.164 | 55.6 | 62.3 | inactive |
| IFNL2 (GeneID 282616) | 4 | -0.475 | 6.41 | 4.61 | inactive |
| IFNL2 (GeneID 282616) | 5 | -0.127 | 116 | 106 | inactive |
| IFNL2 (GeneID 282616) | 6 | -0.309 | 88.4 | 71.3 | inactive |
| LOXL4 (GeneID 84171) | 1 | -0.738 | 65.7 | 39.4 | inactive |
| LOXL4 (GeneID 84171) | 2 | 0.121 | 24.9 | 27.1 | inactive |
| LOXL4 (GeneID 84171) | 3 | -0.334 | 107 | 84.5 | inactive |
| LOXL4 (GeneID 84171) | 4 | -0.584 | 49.3 | 32.9 | inactive |
| CACNA1B (GeneID 774) | 1 | -0.601 | 99.9 | 65.9 | inactive |
| CACNA1B (GeneID 774) | 2 | -0.147 | 79.4 | 71.7 | inactive |
| CACNA1B (GeneID 774) | 3 | -0.335 | 58.7 | 46.5 | inactive |
| CACNA1B (GeneID 774) | 4 | -0.0142 | 54.5 | 53.9 | inactive |
